No constants are given. Whether binding was seen depends on the method and setting. Binding seen in cells or lysates may run through a third protein. Some entries that bind do so weakly or less than the wild type. For some assays here: Where a sequence is shown, tags or fusion partners need not be part of it.

By UniProt entry, the sequences of proteins in these tests, tags left out.
UniProt P19474: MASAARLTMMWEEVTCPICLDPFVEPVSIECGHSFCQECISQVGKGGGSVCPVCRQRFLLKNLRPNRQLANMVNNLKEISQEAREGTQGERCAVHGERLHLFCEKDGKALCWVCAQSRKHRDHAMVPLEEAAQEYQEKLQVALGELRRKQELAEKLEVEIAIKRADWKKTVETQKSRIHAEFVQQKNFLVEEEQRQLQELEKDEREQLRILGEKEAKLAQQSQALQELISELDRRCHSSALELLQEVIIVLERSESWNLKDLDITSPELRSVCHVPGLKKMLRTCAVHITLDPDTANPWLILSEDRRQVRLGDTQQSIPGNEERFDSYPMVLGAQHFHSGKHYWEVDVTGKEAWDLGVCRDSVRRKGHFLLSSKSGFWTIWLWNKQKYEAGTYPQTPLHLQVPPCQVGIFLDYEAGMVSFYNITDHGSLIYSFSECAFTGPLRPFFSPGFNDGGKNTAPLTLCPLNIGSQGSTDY

The target of assay [1] is Human TRIM21, HA-tagged (pcDNA3.1-TRIM21-HA) (human) (UniProt P19474). As to the kind of experiment: co-IP.
The target of assay [2] is Endogenous p65 of HEK293T cells (human (endogenous in HEK293T)), Q04206. As to the kind of experiment: co-IP. The settings on record: remark: other sources report otherwise.

B1: Toxoplasma gondii ROP18 of the type I RH strain, FLAG-tagged (pcDNA3.1-ROP18I-FLAG) (enzyme, UniProt Q2PAY2 1-554)
chain: MFSVQRPPLTRTVVRMGLATLLPKTACLAGLNVALVFLLFQVQDGTGITLGPSKLDSKPTSLDSQQHVADKRWLATVGHYKHLAGATESTRDVSLLEERAQHRVNAQETNQRRTIFQRLLNLLRRRERDGEVSGSAADSSSRPRLSVRQRLAQLWRRAKSLFKRGIRRYFPQGRNRQRSLRAQRRRSELVFEKADSGCVIGKRILAHMQEQIGQPQALENSERLDRILTVAAWPPDVPKRFVSVTTGETRTLVRGAPLGSGGFATVYEATDVETNEELAVKVFMSEKEPTDETMLDLQRESSCYRNFSLAKTAKDAQESCRFMVPSDVVMLEGQPASTEVVIGLTTRWVPNYFLLMMRAEADMSKVISWVFGDASVNKSEFGLVVRMYLSSQAIKLVANVQAQGIVHTDIKPANFLLLKDGRLFLGDFGTYRINNSVGRAIGTPGYEPPERPFQATGITYTFPTDAWQLGITLYCIWCKERPTPADGIWDYLHFADCPSTPELVQDLIRSLLNRDPQKRMLPLQALETAAFKEMDSVVKGAAQNFEQQEHLHTE
For the molecule B1, in assay [1], the binding result is reported as “binds”.

B2: Endogenous IκB-α of HEK293T cells, P25963 1-317 (protein)
chain: MFQAAERPQEWAMEGPRDGLKKERLLDDRHDSGLDSMKDEEYEQMVKELQEIRLEPQEVPRGSEPWKQQLTEDGDSFLHLAIIHEEKALTMEVIRQVKGDLAFLNFQNNLQQTPLHLAVITNQPEIAEALLGAGCDPELRDFRGNTPLHLACEQGCLASVGVLTQSCTTPHLHSILKATNYNGHTCLHLASIHGYLGIVELLVSLGADVNAQEPCNGRTALHLAVDLQNPDLVSLLLKCGADVNRVTYQGYSPYQLTWGRPSTRIQQQLGQLTLENLQMLPESEDEESYDTESEFTEFTEDELPYDDCVFGGQRLTL
As for B2, in assay [2], the binding result is “binds”.
